The target of this assay is T1, Flag-MOV10 (full length human MOV10) (human) (UniProt Q9HCE1).
T1 sequence: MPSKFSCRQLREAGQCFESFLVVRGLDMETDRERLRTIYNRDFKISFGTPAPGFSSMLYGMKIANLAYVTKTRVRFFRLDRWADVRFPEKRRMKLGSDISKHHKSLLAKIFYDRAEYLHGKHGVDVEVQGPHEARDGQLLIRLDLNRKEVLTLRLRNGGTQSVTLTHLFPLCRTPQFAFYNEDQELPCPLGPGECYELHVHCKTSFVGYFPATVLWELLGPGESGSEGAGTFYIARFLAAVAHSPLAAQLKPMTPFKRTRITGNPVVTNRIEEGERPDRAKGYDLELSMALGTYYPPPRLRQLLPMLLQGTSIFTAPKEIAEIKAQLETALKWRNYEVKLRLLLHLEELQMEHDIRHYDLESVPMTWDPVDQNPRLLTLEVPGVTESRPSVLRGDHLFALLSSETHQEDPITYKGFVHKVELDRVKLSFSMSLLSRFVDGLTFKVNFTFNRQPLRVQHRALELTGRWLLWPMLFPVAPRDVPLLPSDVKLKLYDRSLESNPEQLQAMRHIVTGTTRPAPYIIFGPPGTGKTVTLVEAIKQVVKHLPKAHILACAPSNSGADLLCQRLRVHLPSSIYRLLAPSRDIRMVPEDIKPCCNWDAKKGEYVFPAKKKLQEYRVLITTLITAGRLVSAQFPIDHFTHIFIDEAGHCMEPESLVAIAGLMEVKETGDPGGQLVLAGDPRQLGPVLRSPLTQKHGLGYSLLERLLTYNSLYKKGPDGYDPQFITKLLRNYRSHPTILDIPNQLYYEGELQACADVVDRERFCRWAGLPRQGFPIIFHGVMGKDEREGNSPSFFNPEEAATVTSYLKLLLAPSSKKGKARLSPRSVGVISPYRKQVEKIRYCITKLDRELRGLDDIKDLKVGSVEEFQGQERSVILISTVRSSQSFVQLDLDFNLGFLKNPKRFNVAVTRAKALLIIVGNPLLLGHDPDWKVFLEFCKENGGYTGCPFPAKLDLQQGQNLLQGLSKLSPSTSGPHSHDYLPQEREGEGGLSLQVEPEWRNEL
Kind of assay: co-IP; anti-Flag IP from HEK293T cells overexpressing Flag-MOV10, its truncations or MOV10/Caprin-1 chimeras; immunoblot for endogenous G3BP1, Flag and Actin.

The chains behind the UniProt entries cited, without tags or fusion partners.
UniProt Q13283: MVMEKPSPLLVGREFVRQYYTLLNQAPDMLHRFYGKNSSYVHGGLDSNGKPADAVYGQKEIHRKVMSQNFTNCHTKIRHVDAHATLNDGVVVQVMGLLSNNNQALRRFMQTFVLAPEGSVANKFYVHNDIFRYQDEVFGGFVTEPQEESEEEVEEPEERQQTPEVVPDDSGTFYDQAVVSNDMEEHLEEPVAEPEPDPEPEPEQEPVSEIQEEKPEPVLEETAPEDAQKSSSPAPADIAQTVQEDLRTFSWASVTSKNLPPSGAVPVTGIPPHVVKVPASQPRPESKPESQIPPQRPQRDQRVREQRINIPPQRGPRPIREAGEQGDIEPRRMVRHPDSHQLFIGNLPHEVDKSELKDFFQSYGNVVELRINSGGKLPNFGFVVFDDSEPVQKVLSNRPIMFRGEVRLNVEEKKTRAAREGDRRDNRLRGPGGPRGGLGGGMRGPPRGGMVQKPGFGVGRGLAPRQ

Results are given in words; binding and its absence hold for the method and conditions named. Binding seen in cells or lysates may run through a third protein. Some results given as binding are weak or reduced against the parent protein; the word gives no strength. Sequences can lack the tags named with a protein.

In the case of “Ras-GTPase-activating protein SH3-domain-binding protein 1 (G3BP1) (from UniProt Q13283 1-466)”, the binding entry was “binds”.
